Assay results: patent US20260271928A1, “CONTROL OF PESTS RESISTANT TO INSECTICIDES” (Syngenta Crop Protection Ag, priority 2023, published 2026)
Some entries share one result that the patent states for a list of compounds.

Tested on: Resistant Bemisia tabaci
Experiment: Resistant Bemisia tabaci (rBT)
Format: in vivo
Details: biotype Q, field-collected 2000, Almeria, Spain
Description: Cotton leaf discs were placed upside down in petri dishes on water agar and treated with the diluted test solutions in a spray chamber. After drying, leaf discs were infested with 10 adult Bemisia tabaci. Dishes were covered with a fabric filter and sealed with a perforated plastic lid. 4 days after treatment samples were assessed for mortality.
Resistant Bemisia tabaci (rBT)
Biotype Q originally field-collected in 2000 from Almeria, Spain. […] The strain carried the mutation L925I in the voltage-gated sodium channel conferring resistance to pyrethroids. It also had higher expression of the p450 CYP6CM1 conferring metabolic resistance to neonicotinoids.

| Compound | resistance of the rBT population to the insecticide |
| --- | --- |
| CN1COCN(Cc2cnc(Cl)s2)/C1=N\[N+](=O)[O-] [Thiamethoxam] | up to 200 fold |
| N#C/N=C1\SCCN1Cc1ccc(Cl)nc1 [thiacloprid] | up to 200 fold |
